Measured values taken from publication PMC11506777.
Changes are numbered by the printed parent chain. Results are given in words; binding and its absence hold for the method and conditions named. In cells and extracts the contact can be indirect. Some results given as binding are weak or reduced against the parent protein; the word gives no strength. Where a sequence is shown, tags or fusion partners need not be part of it. Values belong to the molecule of their own block, whether it stands above or below them.

Protein sequences, listed by entry. Tags and fused reporters are not part of them. Residues count along the entry.
UniProt P22607, residues 23-806: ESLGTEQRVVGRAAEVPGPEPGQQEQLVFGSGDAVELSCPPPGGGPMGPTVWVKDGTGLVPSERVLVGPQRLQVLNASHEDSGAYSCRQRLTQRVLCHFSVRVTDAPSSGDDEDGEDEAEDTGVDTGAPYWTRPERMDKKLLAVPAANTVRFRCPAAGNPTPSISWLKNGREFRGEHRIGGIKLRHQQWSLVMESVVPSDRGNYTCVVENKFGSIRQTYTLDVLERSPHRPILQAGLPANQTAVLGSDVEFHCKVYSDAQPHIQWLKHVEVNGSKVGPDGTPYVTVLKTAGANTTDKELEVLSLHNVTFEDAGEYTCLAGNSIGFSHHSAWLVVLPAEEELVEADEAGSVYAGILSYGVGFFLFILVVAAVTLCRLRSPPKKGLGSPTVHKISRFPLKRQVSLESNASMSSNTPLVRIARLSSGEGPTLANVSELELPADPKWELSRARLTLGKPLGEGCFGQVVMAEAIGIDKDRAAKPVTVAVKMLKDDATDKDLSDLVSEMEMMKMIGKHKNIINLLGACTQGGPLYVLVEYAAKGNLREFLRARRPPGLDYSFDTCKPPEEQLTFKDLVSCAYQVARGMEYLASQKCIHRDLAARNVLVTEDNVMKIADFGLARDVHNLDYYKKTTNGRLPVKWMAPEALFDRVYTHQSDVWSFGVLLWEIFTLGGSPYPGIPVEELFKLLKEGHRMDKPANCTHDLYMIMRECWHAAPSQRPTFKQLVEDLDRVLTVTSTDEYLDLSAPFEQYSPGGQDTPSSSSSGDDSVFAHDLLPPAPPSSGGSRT
UniProt P11021, residues 19-654: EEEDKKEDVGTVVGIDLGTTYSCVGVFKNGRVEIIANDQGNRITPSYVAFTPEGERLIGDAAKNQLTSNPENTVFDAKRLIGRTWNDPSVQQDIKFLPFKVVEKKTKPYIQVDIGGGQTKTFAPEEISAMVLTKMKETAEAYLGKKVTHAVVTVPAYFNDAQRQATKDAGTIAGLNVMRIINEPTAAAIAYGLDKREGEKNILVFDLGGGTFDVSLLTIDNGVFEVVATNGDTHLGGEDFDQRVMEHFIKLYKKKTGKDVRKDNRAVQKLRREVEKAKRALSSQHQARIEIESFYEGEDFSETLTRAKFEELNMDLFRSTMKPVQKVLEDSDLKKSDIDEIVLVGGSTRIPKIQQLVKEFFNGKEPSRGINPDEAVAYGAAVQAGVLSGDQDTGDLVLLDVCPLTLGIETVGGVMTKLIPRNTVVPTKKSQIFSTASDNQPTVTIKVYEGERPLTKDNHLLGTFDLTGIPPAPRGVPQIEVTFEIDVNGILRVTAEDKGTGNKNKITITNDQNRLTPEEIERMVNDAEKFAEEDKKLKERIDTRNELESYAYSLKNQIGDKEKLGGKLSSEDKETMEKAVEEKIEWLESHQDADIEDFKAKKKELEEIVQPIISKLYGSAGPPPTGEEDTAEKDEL

How the values were obtained:
[1] = molecular target: T1, Klotho-EGFP WT (mouse Klotho C-terminally tagged with EGFP) (mouse) (UniProt O35082); assay: co-IP; GFP-TRAP agarose immunoprecipitation from CHAPSO lysates (150 mM citrate buffer pH 6.4, 2% CHAPSO; overnight, 4 °C) of HEK293T cells stably expressing Klotho-EGFP variants, Western blot; cells with or without 2.5 nM FGF23 for 5 min
T1 sequence: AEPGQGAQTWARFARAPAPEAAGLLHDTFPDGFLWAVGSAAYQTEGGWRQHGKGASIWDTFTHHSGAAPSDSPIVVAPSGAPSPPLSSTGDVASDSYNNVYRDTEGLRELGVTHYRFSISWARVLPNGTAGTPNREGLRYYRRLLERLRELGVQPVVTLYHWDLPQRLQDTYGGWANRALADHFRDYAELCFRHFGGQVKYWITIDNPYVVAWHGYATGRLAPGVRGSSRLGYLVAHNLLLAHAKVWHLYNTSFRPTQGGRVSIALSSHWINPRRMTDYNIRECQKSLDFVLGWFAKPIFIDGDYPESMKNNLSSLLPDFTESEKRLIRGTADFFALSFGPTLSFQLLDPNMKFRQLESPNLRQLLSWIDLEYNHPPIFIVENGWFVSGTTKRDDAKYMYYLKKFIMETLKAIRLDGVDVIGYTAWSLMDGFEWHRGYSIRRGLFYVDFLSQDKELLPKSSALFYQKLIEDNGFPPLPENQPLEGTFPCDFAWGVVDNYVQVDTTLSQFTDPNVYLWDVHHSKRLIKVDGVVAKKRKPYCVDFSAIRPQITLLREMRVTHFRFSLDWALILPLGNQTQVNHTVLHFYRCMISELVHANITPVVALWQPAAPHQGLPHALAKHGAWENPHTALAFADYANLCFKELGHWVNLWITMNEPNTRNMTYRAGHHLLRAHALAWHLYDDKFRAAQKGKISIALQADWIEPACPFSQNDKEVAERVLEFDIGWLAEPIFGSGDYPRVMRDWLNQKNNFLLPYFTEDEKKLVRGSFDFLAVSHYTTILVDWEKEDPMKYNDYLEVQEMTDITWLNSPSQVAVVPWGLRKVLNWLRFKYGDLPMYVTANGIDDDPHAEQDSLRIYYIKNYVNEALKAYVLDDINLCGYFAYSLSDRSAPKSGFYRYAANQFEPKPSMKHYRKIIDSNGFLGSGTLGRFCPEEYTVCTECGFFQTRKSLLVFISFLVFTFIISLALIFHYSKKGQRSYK

[2] = molecular target: T2, Klotho-EGFP N614Q (mouse) (UniProt O35082); assay: as above
T2 sequence: T1 sequence with N580Q

binding [1]: binds
binding [2]: binds
Molecule: FGFR3 (FGF Receptor 3) (from UniProt P22607 23-806)

binding [1]: binds
binding [2]: binds
Molecule: HSPA5 (BiP) (from UniProt P11021 19-654)

binding [1]: binds
binding [2]: binds
B1: ERGIC53 (protein, UniProt P49257 31-510)
chain: DGVGGDPAVALPHRRFEYKYSFKGPHLVQSDGTVPFWAHAGNAIPSSDQIRVAPSLKSQRGSVWTKTKAAFENWEVEVTFRVTGRGRIGADGLAIWYAENQGLEGPVFGSADLWNGVGIFFDSFDNDGKKNNPAIVIIGNNGQIHYDHQNDGASQALASCQRDFRNKPYPVRAKITYYQNTLTVMINNGFTPDKNDYEFCAKVENMIIPAQGHFGISAATGGLADDHDVLSFLTFQLTEPGKEPPTPDKEISEKEKEKYQEEFEHFQQELDKKKEEFQKGHPDLQGQPAEEIFESVGDRELRQVFEGQNRIHLEIKQLNRQLDMILDEQRRYVSSLTEEISKRGAGMPGQHGQITQQELDTVVKTQHEILRQVNEMKNSMSETVRLVSGMQHPGSAGGVYETTQHFIDIKEHLHIVKRDIDNLVQRNMPSNEKPKCPELPPFPSCLSTVHFIIFVVVQTVLFIGYIMYRSQQEAAAKKFF
